From US20230103675A1, “ALLERGEN PROTECTION FOR THE SKIN” (BEIERSDORF AG, priority 2020, published 2023)
Not every detail of the peptide structures is certain; ends, links or a residue may be inferred. Where no end group is shown, it is not given here.

Tests used:
[1] = tested on: Phenion FTS full skin models; assay: Cytokine release (IL8, IL6) in supernatants of Phenion FTS full skin models, Bio-Plex multiplex immunoassay; format: cell-based, human; conditions: 24 h, supernatant
Experimental: (§1) The investigations were carried out using Phenion FTS full skin models (Phenion, Henkel). These were maintained for 3 days at 37° C. and 7% CO2 in deep-well plates having a […] pore size in the cell culture inserts. The skin models were maintained in 1.5 ml of air-liquid interface medium without phenol red. The medium was changed daily. The test substances were dissolved in ethanol and incubated at room temperature for 24 h. After culturing for 24 h, 25 μl of the substance solution was dripped onto a sterile filter paper that had previously been laid on the skin model. The barrier peptide (0.5 mM AcRFAACAA) had previously been applied to the model as a solution in 100 mM phosphate buffer (pH 7.5). Alternatively, the barrier peptide was applied in a formulation having a content of 0.25% by weight.
(§2) After culturing for a further 24 h, the models were harvested and one half embedded in OCT mounting medium (VWR Q-Path Chemicals), the other half snap-frozen in liquid nitrogen. The supernatant of each model was collected and stored at −20° C.
The supernatants were then analyzed (FIGS. 2, 3 and 4).
The supernatants of the Phenion FTS models were analyzed using the Bio-Plex Pro Human Cytokine Screening Panel (Bio-Rad) according to the manufacturer's protocol. This multiplex immunoassay is based on capture antibodies directed against the respective interleukins and covalently coupled to magnetic beads. The cytokine concentrations are calculated on the basis of the standard curves from the Bioplex system.
In FIGS. 2 to 4, the interleukin 8 (IL8) or interleukin 6 (IL6) concentration in pg/mL is plotted on the y-axis.
Both IL 8 and IL 6 are interleukins and thus messenger substances of the immune system. They are typically produced and released by skin cells when irritated and/or damaged by allergens and irritants.
The substances applied to the skin model are shown on the x-axis. […]

Phenion skin models [2] = assay: H&E staining of cryosections of Phenion skin models; format: cell-based; conditions: FIG. 5 D; 2.5 mM DNCB and 0.5 mM peptide
Experimental: as §1, §2
In further investigations, frozen sections were thawed and incubated for 10 min in 3.7% paraformaldehyde at RT. After three PBS wash steps and one minute in distilled water, they are stained for 3 min in hematoxylin solution. […]

[3] = Direct peptide reaction assay (DPRA) with urushiols, Ellman's reagent, 24 h; conditions: FIG. 9; urushiol structures I-V, 24 h reaction, n=3
Experimental: The reaction courses shown in FIGS. 8 and 9 were determined colorimetrically through the reaction of the peptide with Ellmann's reagent in a photometer. In this reaction, DTNB ((5,5′-dithiobis-2-nitrobenzoic acid, Ellmann's reagent) is cleaved and attached to the SH residue of the amino acid cysteine of the peptides of the invention (Ac-RFAACAA, RFAACAA).
The SH radical is at the same time the reactive binding site of the peptide with the allergens. The color reaction with DTNB (color change from colorless to yellow) competes with the allergen reaction. This means that the better the allergen reacts with the peptide, the less peptide remains available for the reaction with the detection reagent, i.e. the less the resulting yellow coloration.
The control is the peptide in the buffer system without allergen, i.e. instead of allergen only its solvent (ethanol) is added.
Urushiols of the structure below were used.
The investigated urushiols differ in the saturation in the side chain R.
Urushiols where R═C15 singly (C15:1), doubly (C15:2) or triply (C15:3) unsaturated were investigated.

Phenion skin models [4] = assay: Immunohistological analysis (DNP staining) of proteins haptenized by DNCB in cryosections of Phenion skin models; format: cell-based; conditions: FIG. 6 C/D; 2.5 mM DNCB plus 0.5 mM peptide

## Ac-RFAACAA [Ac-RFAACAA, acetylarginine-phenylalanine-alanine-alanine-cysteine-alanine-alanine]
[1]; FIG. 2, 50 mM DNCB plus 0.5 mM peptide
  effect of the allergen on interleukin 8 (IL8) concentration: completely nullified
[1]; FIG. 3, 2.5 mM cinnamaldehyde (CA) plus peptide
  effect of the allergen on interleukin 8 (IL8) concentration: completely nullified
[1]; FIG. 4, 2.5 mM DNCB plus peptide
  effect of the allergen on interleukin 6 (IL6) concentration: completely nullified
Phenion skin models [2]
  effect of the allergen on skin model morphology (H&E: stratum corneum, epidermal cell nuclei): completely nullified
[3]
  reactivity and thus protective activity against urushiols: very high reactivity
Phenion skin models [4]
  effect of the allergen: red staining of proteins haptenized by DNCB: almost completely nullified
